This is one part of the list.
B1: il2ra_site1_1z92_sap_9_mot_96901828190b971c916e7b6b8058f7b9_0001_af2_000000268_0001_39_52_H_._2db9124b7b6a1130000dd07f88946ede_0001_1_af2_0001_0000100004_000000 … (protein)
chain: SLEEQAELLLEIAPNPRALRRFLEVVLKTSGDPEDAEKFIEIVRKIARELGNEKLEEAAEEALRK
B2: il2ra_site1_2b5i_normal_mot_HHH_b2_08221_000000034_0001_1_18_H_._HHH_b1_05710_0001_0000200013_0000001_0_af2pred_dldesign_0_af2pred (protein)
chain: SSSSSPLLELLKEIEKKLKELEAKHEEEVLDPIEDAIRAALKSKDLAALEAILKELEALLKSSSS
B3: il2ra_site2_3nfp_sap_19_mot_HHH_b1_00660_af2_000000090_0001_40_57_H_._05aa7e744345dd736dff7248ed86ef87_0001_1_af2_0001_0000400012_0000001_1_0001 (protein)
chain: SSSSDKAEEYLRIALEILERAREDNDEESARSIAEVLLAAAESNRDEEVFERAEEILEELSSSSS
B4: il2ra_site2_3nfp_sap_24_mot_HHH_b2_00895_af2_000000106_0001_38_52_H_._HHH_b1_08075_0001_0000300013_0000001_0_0001 (protein)
chain: SSSDREEEIERLFEEVEELLKRGDPAEATQLLMEMAELANRLNDPELARLVLELYKLARELYSSS
B5: il2ra_site1_3nfp_normal_mot_HHH_b2_03135_af2_000000097_0001_42_55_H_._8ec5799815994991cb8689a80b606799_0001_0001_0000800052_0000001_0_af2pred_0001_af2pred (protein)
chain: SLEEILEELKEEYKDDPDIKILLELLERLARIKGDPKEAAEYLLKIAEKAGDEKAQEVLKSVLET
B6: il2ra_site2_2erj_normal_mot_HHH_b2_00789_000000198_0001_40_54_H_._HHH_b2_00575_0001_0000600037_0000001_1 (protein)
chain: SSSSSDTEEEVLELIAEAAHIQDREEVRRLLEEAEEIAERSNNELLLRYLELSLELEEKGSSSSS
B7: il2ra_site1_3nfp_normal_mot_HHH_b1_06826_000000053_0001_1_20_H_._HHH_b2_07961_0001_0000900039_0000001_0_af2pred_0001_af2pred_swapped (protein)
chain: SSSSSEELRRLRELLRQLKRLLKEGDEEEFEELFREAEKLAEELNSRAVETLLRRLKKELESSSS
B8: il2ra_site1_2b5i_normal_mot_HHH_b1_01949_af2_000000041_0001_1_19_H_._HHH_b1_05336_af2_0001_0000200009_0000001_0 (protein)
chain: SSSSSEFERVEELFREASELFRNGNPEEARKVLEEALELARETGDPTAAKDLERMLEFANSSSSS
B9: il2ra_site1_2b5i_sap_8_mot_HHH_b1_01409_af2_000000084_0001_1_19_H_._HHH_b2_02411_af2_0001_0000500029_0000001_0_0001_af2pred_0001_af2pred (protein)
chain: SSSSSELVEEAFELFREANELAKNGDPEEARRVLEEALELAERGNTKSLVRSIEWALRQLSSSSS
B10: il2ra_site1_2b5i_sap_21_mot_HHH_b1_05200_af2_000000003_0001_1_20_H_._HHH_b2_02992_0001_0000100004_0000001_0_0001_af2pred_dldesign_0_af2pred (protein)
chain: SSSSSAVREEVLRLIEEARRARAAGRRREALRLLEEAYKLASEADDEELQAEIEELAKELSSSSS
B11: il2ra_site2_2erj_normal_mot_HHH_b2_05866_000000027_0001_43_57_H_._HHH_b2_01310_0001_0000100005_0000001_1 (protein)
chain: SSSSSDHKEAWERVAELLARLAEVSEEELEKLLEEAERLAREVNDPFLERYVEFAERDVKSSSSS
B12: il2ra_site1_3nfp_normal_mot_e80b558ee5422d85aa46efdc370d0602_0001_af2_000000114_0001_54_65_H_._2a31ae49067c61b6421293497c576922_0001_0001_0000100006_0000001_0_a … (protein)
chain: SEEEEELRREAERLDPQLRILLKILERALKRRGDPRAREVIEEVVELAKKNQEEAKRLAREFLRK
B13: il2ra_site1_1z92_sap_19_mot_HHH_b1_05516_af2_000000202_0001_21_38_H_._HHH_b2_07881_0001_0000500017_0000001_0_0001_af2pred_dldesign_0_af2pred (protein)
chain: SSSSSSAFSRKVREACRLANEGKPEEAIKLLEELLAELRAAGRTSAARKVEILLKLALESSSSSS
B14: il2ra_site2_2erj_normal_mot_HHH_b1_00941_000000051_0001_45_58_H_._HHH_b2_06751_0001_0000100004_0000001_0 (protein)
chain: SSSSSDEAERRIEELLEEAKHIEDLREVFRLLNEALRLAQERDDPELLQLVLEAARERLSSSSSS
B15: il2ra_site2_3nfp_sap_23_mot_HHH_b1_08081_af2_000000020_0001_38_50_H_._HHH_b2_05949_af2_0001_0000600023_0000001_0_0001_af2pred_0001_af2pred_1 (protein)
chain: SSSSDEEKRRLLEELERIVENNDDEEFRHVASEISRLAFENEDHELFALLLELIERFENLSSSSS
B16: il2ra_site1_1z92_normal_mot_73a3237f21306322153cb43486d2ff88_0001_1_af2_000000006_0001_34_49_H_._66959ead3e6c57cb3ef8243f3eb758e0_0001_1_0001_0000200022_0000001 … (protein)
chain: SQAEEELLEAVEAEDEEALRAFVRTLLRDTKDPALAAQLLRYLVKKLGLPEEVLERLLALLRELA
B17: il2ra_site2_3nfp_normal_mot_HHH_b1_04762_000000120_0001_42_54_H_._HHH_b1_05779_0001_0000400008_0000001_0 (protein)
chain: SSSSSEAEEYIRAALLLVEEALEQGDPEIARRILEMARKLAEDIKNEELEEEVERLEELLSSSSS
B18: il2ra_site2_3nfp_sap_15_mot_HHH_b1_01080_000000101_0001_40_56_H_._HHH_b1_05979_af2_0001_0000200007_0000001_1_0001 (protein)
chain: SSEEELRELVEEIREVAEEKGDTLLFQMLAVAEWLLELLEKGKLDEEEKEYAEATIRRIYERVVS

Biological target: il2ra, P01589
Experiment: yeast display titration

Apparent Kd, inactive:
B1 no binding seen
B2 no binding seen
B3 no binding seen
B4 no binding seen
B5 no binding seen
B6 no binding seen
B7 no binding seen
B8 no binding seen
B9 no binding seen
B10 no binding seen
B11 no binding seen
B12 no binding seen
B13 no binding seen
B14 no binding seen
B15 no binding seen
B16 no binding seen
B17 no binding seen
B18 no binding seen

Quoted at random: two entries already listed.
Apparent Kd, inactive:
B12 no binding seen
B7 no binding seen

Reference: article PMC10163288
